Experimental data reported in the supplement of paper PMC7661543.
Differences between knockout arms are mostly noise.

Test system: BT-20
Assay: relative cell number vs DMSO control (72 h) (% of DMSO); higher = less growth inhibition (more cells)
Experimental: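 QMAP-Seq: a pool of 5 breast cancer cell lines (ZR-75-1, SKBR3, HCC-38, MDA-MB-231, BT-20), each carrying 12 doxycycline-inducible Cas9 sgRNA perturbations (11 knockouts plus non-targeting sgNT), was treated with compounds for 72 h at four 10-fold doses (10 nM-10 uM or 1 nM-1 uM range). Barcodes were amplified and sequenced, and cell number was interpolated from 293T spike-in standard curves. The result is expressed as % of the median of DMSO wells. Two biological replicates.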

Cc1ccc(C(=O)N(CCCN)[C@@H](c2oc3cc(Cl)ccc3c(=O)c2Cc2ccccc2)C(C)C)cc1
Details | relative cell number
sgRNA knockout: sgATF3, 10 nM | 27.7
sgRNA knockout: sgATF3, 100 nM | 25.1
sgRNA knockout: sgATF3, 1000 nM | 27.7
sgRNA knockout: sgATF3, 10000 nM | 4.79
sgRNA knockout: sgATF4, 10 nM | 27.9
sgRNA knockout: sgATF4, 100 nM | 30
sgRNA knockout: sgATF4, 1000 nM | 27.9
sgRNA knockout: sgATF4, 10000 nM | 5.41
sgRNA knockout: sgATF6, 10 nM | 26.8
sgRNA knockout: sgATF6, 100 nM | 27.5
sgRNA knockout: sgATF6, 1000 nM | 34.5
sgRNA knockout: sgATF6, 10000 nM | 4.77
sgRNA knockout: sgATG7, 10 nM | 29.6
sgRNA knockout: sgATG7, 100 nM | 27.7
sgRNA knockout: sgATG7, 1000 nM | 33.9
sgRNA knockout: sgATG7, 10000 nM | 6.02
sgRNA knockout: sgERN1, 10 nM | 32.4
sgRNA knockout: sgERN1, 100 nM | 22.2
sgRNA knockout: sgERN1, 1000 nM | 32
sgRNA knockout: sgERN1, 10000 nM | 5.59
sgRNA knockout: sgHSF1, 10 nM | 28.9
sgRNA knockout: sgHSF1, 100 nM | 21.3
sgRNA knockout: sgHSF1, 1000 nM | 34.2
sgRNA knockout: sgHSF1, 10000 nM | 3.45
sgRNA knockout: sgHSF2, 10 nM | 30.5
sgRNA knockout: sgHSF2, 100 nM | 23
sgRNA knockout: sgHSF2, 1000 nM | 32.4
sgRNA knockout: sgHSF2, 10000 nM | 7.06
sgRNA knockout: sgKEAP1, 10 nM | 29.2
sgRNA knockout: sgKEAP1, 100 nM | 25.4
sgRNA knockout: sgKEAP1, 1000 nM | 30.4
sgRNA knockout: sgKEAP1, 10000 nM | 5.4
sgRNA knockout: sgNFE2L2, 10 nM | 30.7
sgRNA knockout: sgNFE2L2, 100 nM | 26.2
sgRNA knockout: sgNFE2L2, 1000 nM | 37
sgRNA knockout: sgNFE2L2, 10000 nM | 7.43
sgRNA knockout: sgSLC35F2, 10 nM | 28.3
sgRNA knockout: sgSLC35F2, 100 nM | 31.9
sgRNA knockout: sgSLC35F2, 1000 nM | 35.2
sgRNA knockout: sgSLC35F2, 10000 nM | 3.76
sgRNA knockout: sgXBP1, 10 nM | 27
sgRNA knockout: sgXBP1, 100 nM | 25.9
sgRNA knockout: sgXBP1, 1000 nM | 31.3
sgRNA knockout: sgXBP1, 10000 nM | 6.05
